Assay results published in PMC6602337.
No constants are given. Whether binding was seen depends on the method and setting. Binding seen in cells or lysates may run through a third protein. Some binding calls cover weakened binding; strength is not graded here. Sequences can lack the tags named with a protein.

The chains behind the UniProt entries cited, without tags or fusion partners.
UniProt Q6UFS5: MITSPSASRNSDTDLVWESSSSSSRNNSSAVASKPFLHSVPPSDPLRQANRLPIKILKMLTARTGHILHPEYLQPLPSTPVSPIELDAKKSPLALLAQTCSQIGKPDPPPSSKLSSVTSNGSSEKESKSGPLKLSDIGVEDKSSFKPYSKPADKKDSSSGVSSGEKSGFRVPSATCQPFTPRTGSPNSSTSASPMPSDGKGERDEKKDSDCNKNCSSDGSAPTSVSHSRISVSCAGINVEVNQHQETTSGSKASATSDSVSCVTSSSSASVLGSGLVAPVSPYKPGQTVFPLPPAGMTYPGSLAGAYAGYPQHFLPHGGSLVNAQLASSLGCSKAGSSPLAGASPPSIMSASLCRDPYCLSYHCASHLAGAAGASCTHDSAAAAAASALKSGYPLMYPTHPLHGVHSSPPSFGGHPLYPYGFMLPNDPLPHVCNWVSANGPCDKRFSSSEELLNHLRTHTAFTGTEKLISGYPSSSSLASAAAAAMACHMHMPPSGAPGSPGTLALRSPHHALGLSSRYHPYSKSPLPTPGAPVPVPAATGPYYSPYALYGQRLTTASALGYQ

Molecular target: Nlz2-FLAG (zebrafish zinc-finger transcription factor Nlz2 with C-terminal FLAG tag) (zebrafish) (UniProt Q6UFS5)
Experiment: co-IP; HEK 293 cells co-transfected with Nlz2-FLAG, Siah1-MYC and Ubiquitin-HA; lysed in TCL buffer (50 mM Tris pH 7.5, 150 mM NaCl, 1% Triton, 1% SDS, 10 µM MG-132), boiled at 95°C for 10 min, diluted with TCL buffer without SDS; precipitated with mouse anti-FLAG and Protein A sepharose overnight at 4°C; blot with anti-MYC, anti-FLAG, anti-HA

B1: Siah1-myc (zebrafish E3 ubiquitin ligase Siah1 with C-terminal MYC tag) (enzyme, UniProt Q7ZVG6 1-282)
chain: MSRQTATALPTGTSKCPPSQRVPTLSGTTASNSDLASLFECPVCFDYVLPPILQCQSGHLVCSNCRPKLTCCPTCRGPLGSIRNLAMEKVANSVLFPCKYASSGCEVTLPHTDKAEHEELCEFRPYSCPCPGASCKWQGSLDAVMPHLLHQHKSITTLQGEDIVFLATDINLPGAVDWVMMQSCFGFHFMLVLEKQEKYDGHQQFFAIVQLIGTRKQAENFAYRLELNGHRRRLTWEATPRSIHEGIATAIMNSDCLVFDTSIAQLFAENGNLGINVTISMC
- binding: binds
